Values from PubChem BioAssay AID1259425 (University of Nebraska Medical Center, 2018)
This is a random part of about 14,000 reagents. Not all columns of the deposit are shown. Not stated in the record: the time to read-out.

- Assay: 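Compare each knockdown with KSR1 silencing using changes in marker transcripts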 (primary screen)
- Cell system: HCT116 human colon cancer cells
- Reagent: siRNA pool against human genes, 50 nM siRNA
- Detection: 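mRNA of six signature genes measured together by branched-DNA assay after 50 nM siRNA pool, blank removed, divided by geometric mean of two housekeeping genes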
- Scale: BNIP3L mRNA: higher = more BNIP3L transcript after knockdown

With knock-down of ACADL (acyl-CoA dehydrogenase long chain), the screen gave BNIP3L mRNA, set 1 = 0.106.
Against CACNA1I (calcium voltage-gated channel subunit alpha1 I), the entry reads BNIP3L mRNA, set 1 = 0.124.
After knock-down of ZNHIT6 (zinc finger HIT-type containing 6) the results were BNIP3L mRNA, set 1 = 0.0901.
For PRPF39 (pre-mRNA processing factor 39), the values are BNIP3L mRNA, set 1 = 0.156.
CABIN1 (calcineurin binding protein 1) scored BNIP3L mRNA, set 1 = 0.161.
NUAK2 (NUAK family kinase 2) showed BNIP3L mRNA, set 1 = 0.178.
Silencing of ANXA3 (annexin A3) came out at: BNIP3L mRNA, set 1 = 0.0827.
Against KIRREL1 (kirre like nephrin family adhesion molecule 1), the entry reads BNIP3L mRNA, set 1 = 0.25.
After knock-down of ZNF347 (zinc finger protein 347), the record shows BNIP3L mRNA, set 1 = 0.0662.
After knock-down of SCN2A (sodium voltage-gated channel alpha subunit 2), the screen gave BNIP3L mRNA, set 1 = 0.0359.
Against NSMF the deposit lists BNIP3L mRNA, set 1 = 0.109.
Depletion of SAXO6 (stabilizer of axonemal microtubules 6) came out at: BNIP3L mRNA, set 1 = 0.141.
Against SEMA7A (semaphorin 7A (JohnMiltonHagen blood group)), the entry reads BNIP3L mRNA, set 1 = 0.23.
With knock-down of BTN2A2 (butyrophilin subfamily 2 member A2) the results were BNIP3L mRNA, set 1 = 0.0679.
With knock-down of TAF9B (TATA-box binding protein associated factor 9b) the results were BNIP3L mRNA, set 1 = 0.0968.
ZNF106 (zinc finger protein 106) scored BNIP3L mRNA, set 1 = 0.0516.
Depletion of FBXO38 (F-box protein 38) gave: BNIP3L mRNA, set 1 = 0.0397.
With knock-down of FGD1 (FYVE, RhoGEF and PH domain containing 1), the screen gave BNIP3L mRNA, set 1 = 0.145.
BAZ2B (bromodomain adjacent to zinc finger domain 2B) scored BNIP3L mRNA, set 1 = 0.214.
PENK (proenkephalin) scored BNIP3L mRNA, set 1 = 0.0813.
With knock-down of NCOA3 (nuclear receptor coactivator 3), the record shows BNIP3L mRNA, set 1 = 0.118.
TMEM43 (transmembrane protein 43) gave BNIP3L mRNA, set 1 = 0.171.
PSMD3 (proteasome 26S subunit, non-ATPase 3) showed BNIP3L mRNA, set 1 = 0.159.
PLAAT3 (phospholipase A and acyltransferase 3) showed BNIP3L mRNA, set 1 = 0.13.
SKIC8 (SKI8 subunit of superkiller complex) gave BNIP3L mRNA, set 1 = 0.118.
Silencing of ACP2 (acid phosphatase 2, lysosomal) resulted in: BNIP3L mRNA, set 1 = 0.0683.
With knock-down of PLEKHF2 (pleckstrin homology and FYVE domain containing 2), the record shows BNIP3L mRNA, set 1 = 0.132.
After knock-down of PSMB6 (proteasome 20S subunit beta 6), the record shows BNIP3L mRNA, set 1 = 0.204.
YBX2 (Y-box binding protein 2) scored BNIP3L mRNA, set 1 = 0.139.
With knock-down of AGPS (alkylglycerone phosphate synthase) the results were BNIP3L mRNA, set 1 = 0.0187.
Silencing of NOC3L (NOC3 like DNA replication regulator) gave: BNIP3L mRNA, set 1 = 0.13.
After knock-down of BAX (BCL2 associated X, apoptosis regulator) the results were BNIP3L mRNA, set 1 = 0.119.
After knock-down of TEX15 (testis expressed 15, meiosis and synapsis associated), the screen gave BNIP3L mRNA, set 1 = 0.13.
For SLA2 (Src like adaptor 2) the deposit lists BNIP3L mRNA, set 1 = 0.17.
After knock-down of BCAS2 (BCAS2 pre-mRNA processing factor), the record shows BNIP3L mRNA, set 1 = 0.178.
SSH2 (slingshot protein phosphatase 2) scored BNIP3L mRNA, set 1 = 0.0684.
